PubChem BioAssay AID1259424 | University of Nebraska Medical Center, 2018

- Aim: 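Find knockdowns that reproduce the expression shifts seen after KSR1 loss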 (primary screen)
- Cell system: human HCT116 colon cancer cells
- Knock-down reagent: siRNA pool against human genes, 50 nM
- Measured: 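Log2 levels of six mRNAs (branched-DNA multiplex), adjusted by two reference genes and the non-targeting median, then scored against the average KSR1 knockdown pattern as Pearson r and euclidean distance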
- Scale: mean correlation with KSR1 profile and KSR1 correlation: higher = expression change more like KSR1 knockdown; mean distance from KSR1 profile: higher = expression change less like KSR1 knockdown
In all, the deposit lists about 14,000 reagents; shown is a random part of them. 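Higher correlation or smaller distance means closer resemblance to KSR1 loss; control wells, including KSR1 knockdowns, recur on many plates.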 Further read-outs or replicates are left out here. Not given: the time to read-out.

target gene	mean correlation with KSR1 profile	mean distance from KSR1 profile	KSR1 correlation, replicate 1
ATRAID (all-trans retinoic acid induced differentiation factor)	-0.12	2.62	-0.0385
EVI5L (ecotropic viral integration site 5 like)	0.37	1.79	0.332
TTC7A (tetratricopeptide repeat domain 7A)	-0.374	3.49	-0.159
MMP28 (matrix metallopeptidase 28)	0.247	2.06	0.232
ZNF331 (zinc finger protein 331)	-0.102	1.64	-0.207
COL3A1 (collagen type III alpha 1 chain)	-0.803	2.68	-0.651
GRAP (GRB2 related adaptor protein)	-0.69	2.48	-0.615
UPF3A (UPF3A regulator of nonsense mediated mRNA decay)	-0.11	1.8	-0.147
EDEM1 (ER degradation enhancing alpha-mannosidase like protein 1)	0.339	1.24	0.278
BATF (basic leucine zipper ATF-like transcription factor)	0.921	1.2	0.536
PXDN (peroxidasin)	-0.00522	1.58	0.206
ZNF34 (zinc finger protein 34)	0.16	2.85	-0.0292
ARL6IP1 (ARL6 interacting reticulophagy regulator 1)	0.145	1.48	0.387
POLR2M (RNA polymerase II subunit M)	0.0581	3.44	0.0442
GNG2 (G protein subunit gamma 2)	-0.235	2.02	-0.122
HDAC9 (histone deacetylase 9)	-0.447	1.89	-0.418
ABHD16A (abhydrolase domain containing 16A, phospholipase)	-0.241	2.48	-0.237
EGFL7 (EGF like domain multiple 7)	-0.855	2.9	-0.775
SCN1A (sodium voltage-gated channel alpha subunit 1)	0.63	1.62	0.648
PPP2R5B (protein phosphatase 2 regulatory subunit B'beta)	-0.0704	1.26	-0.0688
FURIN (furin, paired basic amino acid cleaving enzyme)	-0.202	3.13	-0.288
MYO18A (myosin XVIIIA)	0.59	3.13	0.572
TMEM184C (transmembrane protein 184C)	-0.0809	1.4	-0.408
HEMGN (hemogen)	-0.167	5.24	0.0312
ATL3 (atlastin GTPase 3)	-0.67	2.72	-0.729
XPO6 (exportin 6)	-0.446	2.14	-0.349
MIIP (migration and invasion inhibitory protein)	0.275	1.57	-0.0139
EIF2D (eukaryotic translation initiation factor 2D)	0.312	1.74	0.0336
FZD4 (frizzled class receptor 4)	0.203	2.45	0.33
ZNF471 (zinc finger protein 471)	-0.36	1.48	-0.242
CETN2 (centrin 2)	-0.351	2.37	-0.452
ZNF419 (zinc finger protein 419)	0.663	1.33	0.641
CLOCK (clock circadian regulator)	-0.355	2.46	-0.36
PLCL1 (phospholipase C like 1 (inactive))	-0.444	2.17	-0.319
GDAP1L1	-0.442	3.83	-0.552
PIEZO2 (piezo type mechanosensitive ion channel component 2)	-0.591	1.95	-0.66
SLC5A6	0.0869	1.75	0.223
FARP2 (FERM, ARH/RhoGEF and pleckstrin domain protein 2)	-0.469	1.31	-0.58
FAM167B (family with sequence similarity 167 member B)	0.806	1.21	0.702
MCUR1 (mitochondrial calcium uniporter regulator 1)	-0.0139	6.19	0.73
IL22RA1 (interleukin 22 receptor subunit alpha 1)	0.878	0.641	0.714
TXLNA (taxilin alpha)	0.023	1.34	0.0915
ROBO3 (roundabout guidance receptor 3)	-0.221	2.83	-0.115
KLK8 (kallikrein related peptidase 8)	-0.359	2.48	-0.168
FGF16 (fibroblast growth factor 16)	0.158	1.07	-0.23
EBPL (EBP like)	0.759	1.57	0.689
ISL1 (ISL LIM homeobox 1)	-0.601	1.76	-0.548
MYOT (myotilin)	0.355	1.81	0.261
PINK1 (PTEN induced kinase 1)	0.919	1.79	0.896
GUCA1B (guanylate cyclase activator 1B)	0.297	2.82	0.43

3 entries from above in another layout:
target gene,mean correlation with KSR1 profile,mean distance from KSR1 profile,"KSR1 correlation, replicate 1"
GRAP (GRB2 related adaptor protein),-0.69,2.48,-0.615
UPF3A (UPF3A regulator of nonsense mediated mRNA decay),-0.11,1.8,-0.147
EDEM1 (ER degradation enhancing alpha-mannosidase like protein 1),0.339,1.24,0.278
